Binding data for two substances are collected here from article PMC1808488.

Sequences of proteins named here, by UniProt entry; tags and fusion partners are left off. Residues count along the entry.
UniProt P61810: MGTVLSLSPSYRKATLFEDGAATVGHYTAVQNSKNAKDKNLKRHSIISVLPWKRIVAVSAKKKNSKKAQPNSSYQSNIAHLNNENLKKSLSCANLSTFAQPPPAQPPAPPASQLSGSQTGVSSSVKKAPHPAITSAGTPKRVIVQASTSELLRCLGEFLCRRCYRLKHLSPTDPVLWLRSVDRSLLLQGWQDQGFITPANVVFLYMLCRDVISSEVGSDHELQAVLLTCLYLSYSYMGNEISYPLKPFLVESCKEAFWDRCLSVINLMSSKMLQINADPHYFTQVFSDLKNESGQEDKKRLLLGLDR
UniProt P35739, residues 33-799: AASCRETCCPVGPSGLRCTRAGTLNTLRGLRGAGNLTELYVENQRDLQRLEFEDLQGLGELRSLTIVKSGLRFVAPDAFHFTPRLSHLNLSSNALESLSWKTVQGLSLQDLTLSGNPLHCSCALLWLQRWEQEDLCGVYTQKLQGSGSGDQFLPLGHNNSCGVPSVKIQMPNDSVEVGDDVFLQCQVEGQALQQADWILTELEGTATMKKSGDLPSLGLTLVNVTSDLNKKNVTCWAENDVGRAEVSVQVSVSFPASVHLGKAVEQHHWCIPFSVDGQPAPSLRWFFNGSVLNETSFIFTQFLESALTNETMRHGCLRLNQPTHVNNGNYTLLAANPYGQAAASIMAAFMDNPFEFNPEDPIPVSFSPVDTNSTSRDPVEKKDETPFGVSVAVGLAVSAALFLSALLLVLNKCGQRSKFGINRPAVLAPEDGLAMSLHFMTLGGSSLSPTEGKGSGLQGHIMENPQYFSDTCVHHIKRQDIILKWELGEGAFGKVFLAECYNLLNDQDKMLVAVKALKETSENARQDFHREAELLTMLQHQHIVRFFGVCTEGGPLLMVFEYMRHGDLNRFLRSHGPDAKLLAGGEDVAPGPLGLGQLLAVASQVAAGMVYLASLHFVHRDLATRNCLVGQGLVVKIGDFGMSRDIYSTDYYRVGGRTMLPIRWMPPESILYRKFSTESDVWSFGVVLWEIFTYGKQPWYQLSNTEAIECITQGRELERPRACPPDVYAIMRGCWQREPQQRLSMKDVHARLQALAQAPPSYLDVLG

The target of assay [1] is cyclin-dependent kinase 5 (Cdk5), overexpressed (UniProt Q03114). Kind of assay: co-IP; TrkA, TrkB or TrkC overexpressed together with Cdk5 or p35 in COS7 cells or HEK293T cells; immunoprecipitation with Cdk5, p35 or pan-Trk antibody, blot with pan-Trk antibody; 1-2 mg lysate with 1 ug antibody at 4 °C overnight, protein G Sepharose; IgG control.
Another assay has as its target p35, overexpressed (UniProt P61810). The description is as above.
For assay [2], the target named is p35, endogenous in rat brain and rat cortical neurons (rat (endogenous in P7 rat brain and rat cortical neurons)) (UniProt P61810). The experiment in a line: co-IP; Rat cortical neurons with or without BDNF for 20 min; lysates immunoprecipitated with p35 antibody, blotted with TrkB, p35 or Cdk5 antibody.

Results are given in words; binding and its absence hold for the method and conditions named. Binding seen in cells or lysates may run through a third protein. Some entries that bind do so weakly or less than the wild type.

For “TrkA (from UniProt P35739 33-799) (receptor)”, the binding entry was “binds” in assay [1] and “binds” with p35, overexpressed. Consider “cyclin-dependent kinase 5 (Cdk5), endogenous in rat brain and rat cortical neurons (from UniProt Q03114 1-292) (enzyme)”, for which the binding entry in assay [2] was “binds”.
